Source: patent publication WO2001094586A2 (dated 2001)
Results are given in words; binding and its absence hold for the method and conditions named. Some results given as binding are weak or reduced against the parent protein; the word gives no strength. Blank lines part the entries; values can stand above or below the binder they belong to.

Experiments:
[1] = target: T1, human gp39 (CD40 ligand), cell-surface (human, UniProt P29965 1-261); assay: cell ELISA on fixed mgp39-CHO cells
T1 construct: whole, on cells; also called CD154; mgp39
T1 sequence (looked up): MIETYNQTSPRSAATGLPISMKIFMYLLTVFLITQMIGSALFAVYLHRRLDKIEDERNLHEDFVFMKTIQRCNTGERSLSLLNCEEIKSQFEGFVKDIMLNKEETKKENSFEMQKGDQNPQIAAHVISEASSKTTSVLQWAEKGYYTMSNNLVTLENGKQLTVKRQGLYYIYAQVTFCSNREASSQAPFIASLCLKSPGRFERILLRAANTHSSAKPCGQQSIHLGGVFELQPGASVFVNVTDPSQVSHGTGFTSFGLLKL

[2] = target: T1, human gp39 (CD40 ligand), cell-surface; assay: binding to CHO-gp39 transfectant
[3] = target: T1, human gp39 (CD40 ligand), cell-surface; assay: competition cell ELISA on fixed mgp39-CHO cells; competitor biotin-labelled murine 24-31

- binding [1]: binds
- binding [2]: binds
- binding [3]: binds
B1: chimeric 24-31 antibody (antibody, V domains shown)
VH: EVQLQESGPSLVKPSQTLSLTCSVTGDSITNGFWIWIRKFPGNKLEYMGYISYSGSTYYNPSLKSRISITRDTSQNQFYLQLNSVTTEDTGTYYCACRSYGRTPYYFDFWGQGTTLTVSS
VL: DIVMTQSQKFMSTSVGDRVSITCKASQNVITAVAWYQQKPGQSPKLLIYSASNRYTGVPDRFSGSGSGTDFTLTISNMQSEDLADYFCQQYNSYPYTFGGGTKLEIK

- binding [1]: binds
- binding [3]: binds
B2: murine antibody 24-31 (anti-human gp39 monoclonal antibody) (antibody, V domains shown)
VH: B1 VH
VL: B1 VL
notes: also called murine 24-31; anti-gp39 24-31 mAb
